The campaign covered roughly 360,000 compounds. About 7,500 (2.1%) were called active. This list was built around the results that the source calls inconclusive (neither active nor inactive); the mix of calls is not that of the screen. The call rests on the fitted dose curve; in most records, active means well fitted inhibition curve with a large enough effect; inconclusive means small, poorly fitted or top-dose-only effect, or effect the other way; inactive means flat fitted curve, though single readings scatter. A potency beside an inconclusive call is a rough fit, not a confirmed value. A structure can be active in one record and inactive in another.
Experiment: Nrf2 qHTS screen for inhibitors; further: nearly all actives have a fitted effect of over 60% in size
Settings: A549 ARE-Fluc reporter, luciferase luminescence, 18-24 h; series mostly up to 46 µM
In short: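 Two sequential reads on A549 ARE_Fluc cells exposed to compound for 18-24 h: a CellTiter-Fluor fluorescence read for viability, then a luciferase luminescence read for Nrf2/ARE activity.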
Potency means the concentration at half of the fitted maximal effect.

Row | SMILES | Potency
1 | O=C(NCCc1ccccc1)c1ccc(Nc2nc3ccccc3n3nnnc23)cc1 | inconclusive: 0.103 µM [falling, partial curve, poor fit]
2 | CCOc1ccccc1NC(=O)CC1Nc2cc(C)c(C)cc2NC1=O (centres undefined) | inconclusive: 32.6 µM [falling, single point]
3 | Cc1cccc(N(CC(O)CON=C2c3ccccc3-c3ccccc32)S(C)(=O)=O)c1 (centres undefined) | active: 18.4 µM
4 | O=C(NCc1noc2ccccc12)N1CCN(c2ccccc2)CC1 | inactive
5 | O=S(=O)(c1ccc2c(c1)OCCO2)N1CCC(O)(c2ccc(Cl)cc2)CC1 | inconclusive: 29.1 µM [falling, single point]
6 | CCOC(=O)N1CCC(NC(=O)c2cnn3cccnc23)CC1 | inconclusive: 1.64 µM [falling, partial curve]
7 | COc1ccccc1-c1sc2ccccc2c1-c1ccc(OCCN2CCOCC2)cc1 | inactive
8 | NNC(=O)c1[nH]c2ccccc2c1-c1ccccc1 | inconclusive: 5.17 µM [activator, partial curve]
9 | Cn1c(N)c(C(=O)/C=C/c2ccccc2)c(=O)[nH]c1=O | inconclusive: 20.6 µM [activator, partial curve]
10 | CN1CCN(C(=O)CNC(=O)c2cccs2)CC1 | inconclusive: 10.3 µM [activator, partial curve]
11 | Cc1cccc(OCc2nnc(SCC(=O)Nc3ccc(C)c(C)c3)o2)c1 | inconclusive: 32.6 µM [falling, partial curve, poor fit]
12 | CCn1c(CCCc2ccc(OC)c(C)c2)n[nH]c1=S | inconclusive: 29.1 µM [activator, single point]
13 | COc1ccc(S(=O)(=O)Nc2cc3c4c(c2)CCC(=O)N4CCC3)cc1C | inconclusive: 11.6 µM [falling, partial curve]
14 | Cc1nc(-c2ccccc2)sc1-c1ccc(SCC(=O)NCc2ccccc2Cl)nn1 | inconclusive: 32.6 µM [falling, single point]
15 | CS/C(=C\[N+](=O)[O-])Nc1ccc(F)cc1 | inactive
16 | CC(C)c1ccccc1NC(=O)c1cccc(NC(=O)c2ccccc2)c1 | inconclusive: 23.1 µM [falling, single point]
17 | NC(N)=NC(N)=Nc1ccc2ccccc2c1 | inconclusive: 29.1 µM [falling, single point]
18 | CC1CCN(c2nn3c(=O)c(C(=O)NC(C)C)cnc3s2)CC1 | inconclusive: 18.4 µM [activator, partial curve]
19 | CC1Cc2cc(S(=O)(=O)CCC(=O)NCc3ccco3)ccc2N1C(=O)C1CC1 (centres undefined) | inactive
20 | O=C(Nc1cccc(C(F)(F)F)c1)c1cccnc1N1CCN(c2ccccc2)CC1 | inconclusive: 14.6 µM [falling, partial curve, poor fit]
21 | COc1ccc(OC)c(C2=NS(=O)(=O)N(C)C(C(=O)Nc3ccc(F)cc3F)=C2)c1 | active: 14.6 µM
22 | N#Cc1nc(-c2ccc(COc3ccc(Cl)cc3)o2)oc1N1CCC(C(N)=O)CC1 | inconclusive: 32.6 µM [falling, single point]

In another format: entries from further up.

| Row | SMILES | Potency |
| --- | --- | --- |
| 16 | CC(C)c1ccccc1NC(=O)c1cccc(NC(=O)c2ccccc2)c1 | inconclusive: 23.1 µM [falling, single point] |
| 17 | NC(N)=NC(N)=Nc1ccc2ccccc2c1 | inconclusive: 29.1 µM [falling, single point] |

(next part)

Row | SMILES | Potency
23 | COC(=O)C1=C(C)Nc2nc3ccccc3n2C1c1ccccc1F (centres undefined) | inconclusive: 18.4 µM [activator, single point]
24 | COc1ccc(CNCc2ccc3ccccc3c2)c(OC)c1 | inconclusive: 18.4 µM [falling, single point]
25 | S=C1NCN(Cc2cccnc2)CN1 | inactive
26 | O=C(Cn1c(=O)n(-c2ccccc2)c(=O)c2c3c(sc21)CCCC3)Nc1ccc(F)cc1F | inactive
27 | Cc1cc(=O)n(Cc2ccc(Cl)cc2)c2c1c(C)nn2-c1ccccc1 | inconclusive: 18.4 µM [activator, single point]
28 | COc1ccc(CNC(=O)CN2CCC(n3nnc4cc(F)ccc43)CC2)cc1 | inconclusive: 8.2 µM [falling, partial curve]
29 | CC(=O)c1ccc(S(=O)(=O)N2CCN(C(=O)CN3C(=O)NC4(CCCC4)C3=O)CC2)cc1 | inactive
30 | O=C(CCNC(=O)c1ccccc1Cl)Nc1nc(-c2ccccc2Cl)cs1 | inconclusive: 16.4 µM [activator, partial curve, poor fit]
31 | COc1ccc(-n2c(-c3ccco3)nc3c(cnn3-c3ccccc3Cl)c2=O)cc1 | inconclusive: 29.1 µM [falling, single point]
32 | CN(NC1CC(=O)N(c2ccccc2)C1=O)c1ccccc1 (centres undefined) | inconclusive: 32.6 µM [activator, single point]
33 | COc1cc(NC(=O)c2ccccc2Cl)c(OC)cc1NC(=O)CN1CCOCC1 | inconclusive: 25.9 µM [falling, single point]
34 | Cc1cc(C)cc(NC(=O)Nc2ccc3ccccc3n2)c1 | inactive
35 | CCc1c(Nc2ccccc2Cl)nc(N)[nH]c1=O | inconclusive: 13 µM [falling, partial curve, poor fit]
36 | Cc1ccc2c(c1)N(C(C)C(=O)NCc1ccc3c(c1)OCO3)C(=O)CO2 (centres undefined) | inactive
37 | O=c1c2ccccc2nc2n1CCN2Cc1ccc(Cl)cc1 | active: 5.8 µM
38 | Cc1ccc(/C=N/NC(=O)COc2ccccc2-c2ccccc2)cc1 | inconclusive: 3.26 µM [activator, partial curve, poor fit]
39 | CNC(=S)Nc1ccc([N+](=O)[O-])cc1 | inconclusive: 7.31 µM [falling, partial curve, poor fit]
40 | Cc1nn(C)c2c1c(-c1ccccc1)cc(=O)n2CC(=O)NC(C)c1ccccc1 (centres undefined) | inconclusive: 29.1 µM [falling, single point]
41 | CC1(C)CC(=O)C2=C(C1)N(c1ccccc1)C(N)=C(C#N)C2c1ccccc1 (centres undefined) | inactive
42 | CCCOc1ccc(C2c3c(-c4c(C)cc(C)cc4O)n[nH]c3C(=O)N2CCO)cc1 (centres undefined) | inconclusive: 14.6 µM [activator, partial curve, poor fit]
43 | O=C(CN1C(=O)CCSc2ccccc21)NC1CCCCC1 | inconclusive: 29.1 µM [falling, single point]
44 | CCOc1ccc(C(=O)/C=C/c2cn(CN3CCN(C)CC3)c3ccccc23)cc1 | inconclusive: 23.1 µM [falling, partial curve, poor fit]
